{"sequences": {"note": "Sequences of proteins named here, by UniProt entry; tags and fusion partners are left off. A change or cut given only in a name is not applied to a line headed by its entry.", "UniProt Q9UM82": "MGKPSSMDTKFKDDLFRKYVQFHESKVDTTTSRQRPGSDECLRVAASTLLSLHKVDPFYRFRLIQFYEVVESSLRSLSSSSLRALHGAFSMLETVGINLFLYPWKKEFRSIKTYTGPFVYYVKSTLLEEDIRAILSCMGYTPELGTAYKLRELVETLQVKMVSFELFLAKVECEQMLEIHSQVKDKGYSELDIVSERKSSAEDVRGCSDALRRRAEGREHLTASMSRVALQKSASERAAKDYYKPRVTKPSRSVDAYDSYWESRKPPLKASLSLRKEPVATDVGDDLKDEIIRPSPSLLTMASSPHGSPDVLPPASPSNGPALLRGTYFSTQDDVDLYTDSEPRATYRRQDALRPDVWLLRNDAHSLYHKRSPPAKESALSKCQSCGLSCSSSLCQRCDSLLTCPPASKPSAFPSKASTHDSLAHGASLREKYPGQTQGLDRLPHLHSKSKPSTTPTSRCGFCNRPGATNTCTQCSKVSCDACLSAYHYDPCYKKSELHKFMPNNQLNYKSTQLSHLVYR"}, "source": "paper PMC5031558", "binders": {"B1": {"name": "CYLD USP domain (aa 583–956) (domain or fragment, UniProt Q9NQC7 583-956)", "chain": "GLEIMIGKKKGIQGHYNSCYLDSTLFCLFAFSSVLDTVLLRPKEKNDVEYYSETQELLRTEIVNPLRIYGYVCATKIMKLRKILEKVEAASGFTSEEKDPEEFLNILFHHILRVEPLLKIRSAGQKVQDCYFYQIFMEKNEKVGVPTIQQLLEWSFINSNLKFAEAPSCLIIQMPRFGKDFKLFKKIFPSLELNITDLLEDTPRQCRICGGLAMYECRECYDDPDISAGKIKQFCKTCNTQVHLHPKRLNHKYNPVSLPKDLPDWDWRHGCIPCQNMELFAVLCIETSHYVAFVKYGKDDSAWLFFDSMADRDGGQNGFNIPQVTPCPEVGEYLKMSLEDLHSLDSRRIQGCARRLLCDAYMCMYQSPTMSLYK"}, "B2": {"name": "CYLD B-box domain (aa 778–855) (domain or fragment, UniProt Q9NQC7 778-855)", "chain": "TDLLEDTPRQCRICGGLAMYECRECYDDPDISAGKIKQFCKTCNTQVHLHPKRLNHKYNPVSLPKDLPDWDWRHGCIP", "modifications": "15N-labelled in the NMR titration"}}, "test_in_all_cases": "pull-down; in vitro pull-down with GST-SPATA2 PUB domain (WT or mutants) against CYLD USP domain variants; both purified", "key": {"GST-SPATA2 PUB domain": {"molecular_target": "GST-SPATA2 PUB domain (UniProt Q9UM82)"}, "[1]": {"molecular_target": "GST-SPATA2 PUB domain T115N (UniProt Q9UM82)"}, "[2]": {"molecular_target": "GST-SPATA2 PUB domain T115A (UniProt Q9UM82)"}, "[3]": {"molecular_target": "GST-SPATA2 PUB domain T94K (UniProt Q9UM82)"}, "[4]": {"molecular_target": "GST-SPATA2 PUB domain Y114A (UniProt Q9UM82)"}, "[5]": {"molecular_target": "GST-SPATA2 PUB domain N98A (UniProt Q9UM82)"}}, "note": "These are yes or no findings as the source states them, for the method shown. Binding can be weak; no strength is given."}
{"binder": "B1", "values": [{"measurement": "binding", "setting": "GST-SPATA2 PUB domain", "result": "binds"}, {"measurement": "binding", "setting": "[1]", "result": "binds"}, {"measurement": "binding", "setting": "[2]", "result": "binds"}, {"measurement": "binding", "setting": "[3]", "result": "binds"}, {"measurement": "binding", "setting": "[4]", "result": "binds"}, {"measurement": "binding", "setting": "[5]", "result": "binds"}]}
{"binder": "B2", "values": [{"measurement": "binding", "setting": "GST-SPATA2 PUB domain", "result": "no binding"}]}
